The supplement of paper PMC9135407
Several values for one entry are separate records, joined by “and”; a condition that tells them apart may be missing. Equal values may be shown once. Where a name gives a salt, the structure may show the parent alone. ± gives the standard deviation of the averaged measurements. The list shows a part of the results. Baselines shift from plate to plate; read single values as rough.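 Assay uses culture-activated primary human stellate myofibroblasts; lipid droplet recovery indicates inactivation. Measured: proportion of Hoechst-counted cells over a plate-specific Bodipy cutoff, duplicate wells, DMSO and nortriptyline as per-plate negative and positive controls. A hit scores, control-normalized, above the plate's top-tenth-percentile nortriptyline wells or ranks among its three best wells. Final well concentrations not reported.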

System: primary human hepatic stellate cells (donor 1)
Experiment: percent Bodipy-positive cells; higher = more lipid droplet accumulation
Conditions: 48 h
[1] = library stock concentration: 10 mM
[2] = library stock concentration: 3.33 mM
[3] = library stock concentration: 1 mM

SMILES: NC(=O)CI [Iodoacetamide]
- percent Bodipy-positive cells [1]: 100%

SMILES: CCCCCCCCCCCCCC(=O)O[C@@H]1[C@@H](C)[C@@]2(O)[C@@H](C=C(CO)C[C@]3(O)C(=O)C(C)=C[C@@H]23)[C@@H]2C(C)(C)[C@]12OC(C)=O [Phorbol 12-myristate 13-acetate]
- percent Bodipy-positive cells (library stock concentration: 8.1 mM): 81.9 ± 0.92%

SMILES: C[C@]12CCC(=O)C=C1C=C[C@@H]1[C@@H]2CC[C@@]2(C)[C@H]1CC[C@@]2(O)CCC(=O)O [Canrenoic acid, potassium salt]
- percent Bodipy-positive cells (library stock concentration: 5 mM): 12.2 ± 2.2%
- percent Bodipy-positive cells [1]: 21.5 ± 1.4%

SMILES: C[C@]12CCC(=O)C=C1C=C[C@@H]1[C@@H]2CC[C@@]2(C)[C@H]1CC[C@@]2(O)CCC(=O)O [Canrenoic acid potassium salt]
- percent Bodipy-positive cells: 26.9 ± 5.7%

SMILES: CC[C@@H](C(=O)[C@@H](C)[C@@H](O)[C@H](C)[C@@H]1O[C@@H]([C@@H](CC)C(=O)O)CC[C@@H]1C)[C@H]1O[C@]2(C=C[C@@H](O)[C@]3(CC[C@@](C)([C@H]4CC[C@](O)(CC)[C@H](C)O4)O3)O2)[C@H](C)C[C@@H]1C [Salinomycin, sodium]
- percent Bodipy-positive cells [1]: 60.1 ± 3.6%

SMILES: COc1ccc2[nH]c3c(c2c1)CCNC3 [6-Methoxy-1,2,3,4-tetrahydro-9H-pyrido[3,4b] indole]
- percent Bodipy-positive cells [1]: 85.7 ± 8%

SMILES: C(#CCN1CCCC1)CN1CCCC1 [Tremorine dihydrochloride]
- percent Bodipy-positive cells: 54.2 ± 25%

SMILES: OC(Cc1ccncc1)C(Cl)(Cl)Cl (stereo not given)
- percent Bodipy-positive cells [1]: 9.14 ± 2%

SMILES: Cc1cccc(C)c1NC(=O)CN1CCCC1=O [Nefiracetam]
- percent Bodipy-positive cells [2]: 10.6 ± 3.4%

SMILES: CS(=O)(=O)Nc1ccc(Cc2noc(-c3ccc4[nH]cc(CCN)c4c3)n2)cc1
- percent Bodipy-positive cells [1]: 7.01% and 7.35%

SMILES: O=[N+]([O-])/C=C/c1ccc2c(c1)OCO2
- percent Bodipy-positive cells [1]: 100%

SMILES: CC(C)NC(C)Cc1ccc(I)cc1 (stereo not given) [Iofetamine hydrochloride]
- percent Bodipy-positive cells [1]: 81.9 ± 5.5%

SMILES: O=c1ccc2cc(O[C@@H]3O[C@H](CO)[C@@H](O)[C@H](O)[C@H]3O)c(O)cc2o1 [Esculin]
- percent Bodipy-positive cells [2]: 7.82 ± 0.45%
- percent Bodipy-positive cells [1]: 8.13 ± 4.5%

SMILES: O=c1ccc2cc(O[C@@H]3O[C@H](CO)[C@@H](O)[C@H](O)[C@H]3O)c(O)cc2o1 [Esculin Hydrate]
- percent Bodipy-positive cells: 6.83 ± 1.4%

SMILES: O=c1ccc2cc(O[C@@H]3O[C@H](CO)[C@@H](O)[C@H](O)[C@H]3O)c(O)cc2o1 [Aesculin]
- percent Bodipy-positive cells [1]: 18.9 ± 6.3%

SMILES: COc1cc2c3cc1Oc1c(OC)c(OC)cc4c1[C@@H](Cc1cccc(c1)Oc1ccc(c(O)c1)C[C@@H]3N(C)CC2)N(C)CC4 [Berbamine hydrochloride]
- percent Bodipy-positive cells [1]: 23.4 ± 6.8%

SMILES: CN1CCCCC1Cn1cc(C(=O)c2cc([N+](=O)[O-])ccc2I)c2ccccc21 (stereo not given)
- percent Bodipy-positive cells [3]: 35.8 ± 34%
- percent Bodipy-positive cells [2]: 17.4 ± 3.4%
- percent Bodipy-positive cells [1]: 69.5 ± 6.7%

SMILES: COC(=O)N1CCN(C(=O)Cc2ccc(Cl)c(Cl)c2)C(CN2CCCC2)C1 (stereo not given)
- percent Bodipy-positive cells [1]: 31.9 ± 2.6%

SMILES: NCC(O)c1ccc(O)cc1 (stereo not given) [(?)-Octopamine hydrochloride]
- percent Bodipy-positive cells [1]: 46.3 ± 8.9%

SMILES: NCC(O)c1ccc(O)cc1 (stereo not given) [Octopamine hydrochloride]
- percent Bodipy-positive cells [1]: 21.8% and 10.6%

SMILES: C[C@]12CC[C@H]3[C@@H](CCC4=CC(=O)CC[C@@]43C)[C@@H]1CC[C@@H]2O [Testosterone]
- percent Bodipy-positive cells (library stock concentration: 6.9 mM): 9.59 ± 3.6%
- percent Bodipy-positive cells [1]: 41.8% and 64.2%

SMILES: c1ccc2c(c1)Nc1ccccc1S2
- percent Bodipy-positive cells [1]: 12.6 ± 2%

SMILES: c1ccc2c(c1)Nc1ccccc1S2 [Phenothiazine]
- percent Bodipy-positive cells [2]: 7.28 ± 0.63%
- percent Bodipy-positive cells [1]: 35.6 ± 3.5%

SMILES: c1cc2ccsc2c(N2CCNCC2)n1 [7-Piperazin-1-yl-thieno[2,3-c] Pyridine (hydrochloride)]
- percent Bodipy-positive cells [3]: 11.7 ± 7.3%

SMILES: N=C(NCCC[C@H](N)C(=O)O)N[N+](=O)[O-] [N (g)-nitro-l-arginine]
- percent Bodipy-positive cells [1]: 27.3 ± 4.2%

SMILES: N=C(NCCC[C@H](N)C(=O)O)N[N+](=O)[O-] [NG-Nitro-L-arginine]
- percent Bodipy-positive cells [1]: 31.6 ± 4.1%

SMILES: O=c1c2ccccc2[se]n1-c1ccccc1 [Ebselen]
- percent Bodipy-positive cells [3]: 8.31 ± 1.4%

SMILES: Cc1ccc(/N=C/N(C)/C=N/c2ccc(C)cc2C)c(C)c1 [Amitraz]
- percent Bodipy-positive cells (library stock concentration: 6.8 mM): 6.14 ± 1.7%
- percent Bodipy-positive cells [1]: 32.6 ± 6.7%

SMILES: CCCCCCC(=O)O[C@H]1CC[C@H]2[C@@H]3C[C@@H](O)C4=CC(=O)CC[C@]4(C)[C@H]3CC[C@]12C [6.beta.-Testosterone Enanthate]
- percent Bodipy-positive cells [3]: 12.9 ± 0.4%

SMILES: CCCN(CCC)C1Cc2cc(OC)c(OC)cc2C1
- percent Bodipy-positive cells [1]: 15.1% and 9.38%

SMILES: CC[C@]1(O)CC[C@H]2[C@@H]3CCC4=CCCC[C@@H]4[C@H]3CC[C@@]21C [Ethylestrenol]
- percent Bodipy-positive cells [1]: 23.2 ± 7%

SMILES: CC(=O)O[C@H]1C[C@@H]2CC[C@@H]3[C@H](CC[C@@]4(C)[C@H]3C[C@H]([N+]3(C)CCCCC3)[C@@H]4OC(C)=O)[C@@]2(C)C[C@@H]1[N+]1(C)CCCCC1 [Pancuronium dibromide]
- percent Bodipy-positive cells [2]: 7 ± 4.2%
- percent Bodipy-positive cells [1]: 21.6 ± 4.2%
